No constants are given. Whether binding was seen depends on the method and setting. Binding seen in cells or lysates may run through a third protein. Binding calls can cover weak binding; strength is not graded here. Tags and fused reporters may be left off the sequences shown.
What was measured:
GST-Rn-RAB27A-Q78L (Rn) = target: T1, GST-Rn-RAB27A-Q78L (Rn) (UniProt P23640); test: pull-down
T1 sequence: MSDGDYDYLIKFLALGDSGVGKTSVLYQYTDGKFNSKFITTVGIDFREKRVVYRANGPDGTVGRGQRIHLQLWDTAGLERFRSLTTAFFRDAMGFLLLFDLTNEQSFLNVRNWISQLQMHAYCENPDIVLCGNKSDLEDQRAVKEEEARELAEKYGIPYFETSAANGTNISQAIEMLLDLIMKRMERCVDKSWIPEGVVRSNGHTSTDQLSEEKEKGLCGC

[1] = target: T2, GST-Hs-RAB3A-Q81L (human) (UniProt P20336); test: pull-down
T2 sequence: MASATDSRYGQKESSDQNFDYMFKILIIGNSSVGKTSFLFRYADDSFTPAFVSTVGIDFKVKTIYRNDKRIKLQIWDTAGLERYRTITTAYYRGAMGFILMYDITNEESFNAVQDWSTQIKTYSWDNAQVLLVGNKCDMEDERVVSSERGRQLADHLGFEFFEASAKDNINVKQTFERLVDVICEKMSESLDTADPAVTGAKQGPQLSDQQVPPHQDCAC

## AcGFP1-tagged full-length Hs-SPIRE1 (human)
GST-Rn-RAB27A-Q78L (Rn)
  binding: binds
[1]
  binding: binds weakly
